This test in a line: qHTS Assay for Lipid Storage Modulators in Drosophila S3 Cells.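 As to cell number change: cells counted by Cell Tracker Red CMTPX staining in the red channel.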 Conditions: BODIPY lipid droplet fluorescence, 18-24 h; for cell number change: measured here: cell count max response, cells fed with added oleic acid. The essentials:
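Laser-scanning cytometry quantifies lipid droplet accumulation (500–530 nm total intensity; droplet/cell object ratio) in oleic acid-fed (400 uM added) Drosophila S3 cells treated with a concentration series. 20 uM Triacsin C defined 100% inhibition.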

Setting [1] is: measured here: cell number channel AC50, cells fed with added oleic acid.
Where [2] appears, read: measured here: lipid fluorescence (Fed channel) AC50, cells fed with added oleic acid.

This is one part of the list. These are further read-outs of the screen, such as a control signal, another cell line or another target. No call is given for them. The list favours compounds with an active or inconclusive main result. The note in brackets gives the kind of curve behind each potency; many fits are weak.

The AC50 is the concentration at which the activity in the assay is half-maximal. Higher therefore signals weaker potency.

As for `CN(C)S(=O)(=O)c1cc(C(=O)NCCCn2ccc3ccccc32)ccc1Cl`, the cell number change was -35.7%. Besides, the AC50 under setting [1] is 20.6 µM [falling, single point].
As to `CCN(CC)C(=O)N1CCN(Cc2ccc3c(c2)OCO3)CC1`, the cell number change stood at 32.5%. In addition, the AC50 under setting [1] is 1.64 µM [rising, full curve, poor fit].
In the case of `CCCCc1ccc(-c2csc(/C(C#N)=C/c3ccc(C)o3)n2)cc1`, the cell number change stood at 90.5%. In addition, the AC50 under setting [1] was 29.1 µM [rising, single point]. The AC50 under setting [2] is 29.1 µM [rising, single point].
For the molecule `Cc1nnc(SCC(=O)NNC(=O)c2ccc(Cl)cc2)s1`, the cell number change turned out to be 5.65%. Also, under setting [2], the AC50 was 0.58 µM [rising, single point].
On to `CCC(=O)Nc1ccc(NC(=S)NC(=O)c2cc3ccccc3o2)cc1`, for which the cell number change stood at 1.04%. Further, the AC50 under setting [2] is 29.1 µM [falling, partial curve].
With `Cn1c(=O)c2c(nc(N3CCOCC3)n2CCc2ccccc2)n(C)c1=O`, the cell number change came to 5.61%. In addition, under setting [2], the AC50 is 9.2 µM [rising, partial curve].
`Cc1ccc(NC(=O)CSCC(=O)NCc2ccco2)cc1`: the cell number change amounted to 22.5%.
The same measure, in the same setting: the value for `CCCN1C(=O)C(NC(C)=O)c2ccccc21` (stereo unspecified) was -27.7%.
Consider `CCOC(=O)c1c(N)sc(C(=O)N(CC)CC)c1C`, for which the cell number change is 15.8%. Besides, the AC50 under setting [2] is 13 µM [rising, partial curve, poor fit].
In the case of `Cc1cc(OC(=O)c2ccc(S(=O)(=O)N(C)C)cc2)c([N+](=O)[O-])c(=O)[nH]1`, the cell number change is -36.2%. For the same molecule, under setting [1], the AC50 was 0.116 µM [falling, full curve, poor fit]. Moreover, under setting [2], the AC50 was 0.184 µM [falling, full curve].
Regarding `COc1ccccc1C(=O)NC(CCSC)C(=O)NCc1ccccn1` (stereo unspecified), the cell number change was -38.2%. The AC50 under setting [1] was 32.6 µM [falling, single point].
In the case of `CCN(CC)c1ccc(/C=N/NC(=O)c2ccc3nc[nH]c3c2)c(O)c1`, the cell number change was -39.5%. For the same molecule, the AC50 under setting [2] was 1.84 µM [falling, partial curve, poor fit].
Consider `C/C(=N\O)C(C)NC(=O)c1ccccc1` (stereo unspecified), for which the cell number change was -19.4%. Also, under setting [2], the half-maximal activity concentration (AC50) is 32.6 µM [falling, single point].
As to `Cc1cccc(CN2CCN(C(=O)CCc3nnc(C4CCCCC4)o3)CC2)c1`, the cell number change is 6.32%. In addition, the AC50 under setting [2] is 0.461 µM [falling, single point].
Take `Cc1ccc(S/C(=N\S(=O)(=O)c2ccc(Cl)cc2)c2ccccc2)cc1`: the cell number change amounted to 31.8%.
Regarding `CN(C)CCCN(Cc1ccccc1)C(=S)NCc1ccccc1`, the cell number change was -11.2%. For the same molecule, the AC50 under setting [2] was 18.4 µM [falling, partial curve].
With `CCN(C(=O)CN1CCN(C)CC1)c1c(N)n(Cc2ccccc2)c(=O)[nH]c1=O`, the cell number change is -10.2%. Also, the AC50 under setting [2] is 0.0651 µM [rising, full curve, poor fit].
As to `OC(COc1ccc(-c2ccccc2)cc1)CN1CCOCC1` (stereo unspecified), the cell number change was -8.3%. In addition, the AC50 under setting [2] is 1.84 µM [falling, partial curve].
For the molecule `Fc1ccc(Cn2c(SCc3ccc(F)c(F)c3)nnc2C(F)(F)F)cc1`, the cell number change worked out at 35.1%. Moreover, the AC50 under setting [1] is 0.291 µM [rising, full curve, poor fit].
With `N#Cc1ccc(C(=O)OCC(=O)NC2CCCC2)cc1`, the cell number change was determined as 1.41%. For the same molecule, the half-maximal activity concentration (AC50) under setting [1] is 6.51 µM [rising, single point].
Consider `COCCCNc1nc2c(c(=O)[nH]c(=O)n2C)n1CCCc1ccccc1`, for which the cell number change was found to be 1.6%. The AC50 under setting [2] is 29.1 µM [rising, single point].
For the molecule `COc1ccc(-c2noc(C3CCCN(C(=O)c4cccc(F)c4)C3)n2)cc1` (stereo unspecified), the cell number change was found to be 3.28%. Moreover, under setting [1], the AC50 is 4.61 µM [rising, single point]. In addition, the AC50 under setting [2] was 0.13 µM [falling, full curve, poor fit].
Turning to `O=C(NCc1cccc(C(F)(F)F)c1)C1CCC(=O)N(C2CCCCCC2)C1` (stereo unspecified), the cell number change worked out at 21%. Further, the AC50 under setting [2] is 20.6 µM [rising, partial curve].
Turning to `N#Cc1ccc(S(=O)(=O)NCC(=O)OCC(=O)N2CCCC2=O)cc1`, the cell number change is -0.694%. Besides, under setting [2], the AC50 was 0.0517 µM [falling, full curve].
With `Cc1ccc(S(=O)(=O)N2CCN(CC(O)COc3ccccc3)CC2)cc1` (stereo unspecified), the cell number change came to 6.67%.
Consider `CCCOc1ccc(OCCn2nc(C(=O)O)c3ccccc3c2=O)cc1`, for which the cell number change stood at 57.3%. Further, under setting [1], the AC50 is 1.84 µM [rising, partial curve]. In addition, under setting [2], the AC50 is 29.1 µM [rising, partial curve, poor fit].
On to `COCCN(C(=O)COC(=O)CCCOc1ccc(OC)cc1)c1c(N)n(Cc2ccccc2)c(=O)[nH]c1=O`, for which the cell number change is -14%. For the same molecule, the AC50 under setting [1] is 0.092 µM [falling, full curve, poor fit]. Besides, the AC50 under setting [2] was 0.116 µM [falling, full curve, poor fit].
`CC(=O)NC1(C(F)(F)F)C(=O)Nc2c1c(=O)[nH]c(=O)n2Cc1ccco1` (stereo unspecified): the cell number change is -1.27%.
The same measure, in the same setting: the same measure for `COc1ccc(/C=C(\C#N)C(=O)C(C)(C)n2cncn2)cc1`: -8.62%.
With `NC(=O)CC(NC(=O)c1ccccc1)c1ccc(NC2CCCCCCC2)c([N+](=O)[O-])c1` (stereo unspecified), the cell number change was determined as 17.2%.
Same read-out and setting: the value for `Fc1ccc(F)c(C2=NNC(=Nc3ccccc3F)SC2)c1` was -5.31%.
Still for that read-out and setting: the value for `O=C(Cc1n[nH]c(=O)c2ccccc12)N1CCN(c2ccc(F)cc2)CC1` was 33.1%.
Consider `Nc1nc(N)nc(-c2cccc(Cl)c2Cl)n1`, for which the cell number change came out at 28.9%. The AC50 under setting [2] is 20.6 µM [rising, partial curve, poor fit].
For `CCOCCCn1c(=S)[nH]c2cc(C(=O)NCC(OC)OC)ccc2c1=O`, the cell number change was determined as 18%. The AC50 under setting [2] is 0.411 µM [falling, single point].
For the molecule `COCCNC(=O)CSc1nc2ccccc2c2nc(C)nn12`, the cell number change was -23.8%. Further, the AC50 under setting [2] was 2.31 µM [falling, full curve, poor fit].
With `COCc1nnc(NC(=O)CC(c2ccccc2)c2ccccc2)s1`, the cell number change is -8.65%. For the same molecule, under setting [2], the AC50 was 0.58 µM [falling, full curve, poor fit].
As to `Cc1cc(NS(=O)(=O)c2ccc(NC(=O)CCCOc3ccccc3)cc2)no1`, the cell number change was 4.61%. Moreover, the AC50 under setting [2] was 1.46 µM [falling, full curve].
On to `CC1CCCC(C)N1C(=O)COc1ccccc1F` (stereo unspecified), for which the cell number change was -43.3%. Further, under setting [1], the AC50 was 29.1 µM [falling, single point]. Moreover, under setting [2], the AC50 was 29.1 µM [falling, single point].
As for `COC(=O)c1oc2ccccc2c1N`, the cell number change came to 13%. Moreover, the AC50 under setting [2] is 29.1 µM [rising, single point].
Regarding `Cc1ccc(C(=O)N2CCc3ccccc32)cc1NC(=O)c1ccco1`, the cell number change was determined as 77.2%. Further, the AC50 under setting [1] is 23.1 µM [rising, single point]. The AC50 under setting [2] is 20.6 µM [rising, single point].
Turning to `O=C(Nc1nc(-c2ccccn2)cs1)c1ccc(Cl)s1`, the cell number change was -48.5%. Moreover, the AC50 under setting [1] is 2.06 µM [falling, partial curve]. For the same molecule, the AC50 under setting [2] was 2.06 µM [falling, partial curve].
`O=[N+]([O-])/C(C(Cl)=C(Cl)Cl)=C1\Nc2ccccc2O1`: the cell number change was -4.86%. Also, the AC50 under setting [2] was 1.46 µM [falling, full curve].
On to `CCOc1ccc(NC(=O)COC(=O)CCC(=O)c2cccs2)cc1`, for which the cell number change is -16.2%. In addition, the AC50 under setting [2] was 23.1 µM [rising, single point].
With `Cc1nnc2sc(-c3ccc(-c4ccc(Cl)c(C(F)(F)F)c4)o3)nn12`, the cell number change is -59.8%. Moreover, the AC50 under setting [1] is 6.51 µM [falling, full curve]. The AC50 under setting [2] is 8.2 µM [falling, partial curve].
As for `COc1ccccc1-n1c(SCC(=O)Nc2cccc(C)c2)nc2c(c1=O)SCC2`, the cell number change turned out to be 37.4%. Further, the AC50 under setting [1] is 13 µM [rising, partial curve, poor fit].
Turning to `Fc1c(F)c(F)c(N=Cc2ccc3ncccc3c2)c(F)c1F`, the cell number change is 100%. Further, under setting [1], the AC50 was 6.51 µM [rising, full curve].
With `Cc1ccc(Oc2ccc(-c3nnc(-c4ccccc4)o3)cc2[N+](=O)[O-])cc1C`, the cell number change is -31.4%. Further, the AC50 under setting [1] is 6.51 µM [falling, partial curve]. Moreover, the AC50 under setting [2] is 1.84 µM [falling, partial curve, poor fit].
As to `CC(=O)c1c(O)cc(=O)n(-c2ccccc2)c1-c1cccc2ccccc12`, the cell number change came out at 36.2%. Further, the AC50 under setting [1] was 0.411 µM [rising, full curve, poor fit].
Turning to `C/C(=N/NS(=O)(=O)c1ccc(Br)cc1)c1ccc(C)o1`, the cell number change is -20.8%.
Consider `CCCCNC(=O)NS(=O)(=O)c1ccc(NC(=O)C(NC(N)=O)C(C)CC)cc1` (stereo unspecified), for which the cell number change was -6.42%. In addition, the AC50 under setting [1] is 0.461 µM [falling, single point]. The AC50 under setting [2] is 0.00517 µM [falling, full curve, poor fit].
On to `Cc1sc2ncnc(NCc3ccco3)c2c1C`, for which the cell number change is -39.6%. Further, the AC50 under setting [1] is 4.61 µM [falling, partial curve, poor fit]. Also, under setting [2], the AC50 was 29.1 µM [falling, single point].
On to `CCOC(=O)c1c(NC(=O)CNCCO)sc(C)c1C`, for which the cell number change was -12.1%. In addition, the AC50 under setting [2] is 0.00517 µM [rising, full curve, poor fit].
Turning to `Cc1cnc([N+](=O)[O-])n1CCOC(=O)NC(=O)c1cccc(F)c1`, the cell number change is -25.6%.
With `COc1cc(-c2nc(CCNC(=O)c3ccco3)cs2)cc(OC)c1OC`, the AC50 under setting [2] was 25.9 µM [falling, partial curve].
As for `O=C(NC(=S)Nc1ccc(CN2CCCCC2)cc1)c1ccco1`, the cell number change is -32%. Under setting [1], the AC50 is 0.92 µM [falling, full curve, poor fit]. Under setting [2], the AC50 was 0.82 µM [falling, full curve].
For `Cn1c(SCC(=O)N2CCc3ccccc32)nc2cccnc21`, the cell number change is -1.7%. Moreover, under setting [1], the AC50 is 4.61 µM [rising, single point]. Under setting [2], the AC50 was 4.11 µM [rising, single point].
For the molecule `COc1ccc(COC(=O)CCS(=O)(=O)c2ccc(C)cc2)cc1F`, the AC50 under setting [1] was 1.84 µM [rising, partial curve].
As to `COc1ccc(CC(=O)N(Cc2ccccc2)C(C)C)cc1`, the cell number change is -38.6%. The AC50 under setting [1] is 13 µM [falling, partial curve, poor fit]. The AC50 under setting [2] was 5.17 µM [falling, single point].
`Cc1cc(C)n(CC(=O)N/N=C/c2ccccn2)n1`: the cell number change is 60.2%. Under setting [1], the AC50 is 29.1 µM [rising, single point]. Also, the AC50 under setting [2] was 18.4 µM [rising, single point].

For the origin of these results see PubChem BioAssay AID2685 (National Center for Advancing Translational Sciences (NCATS), 2010).
